Assay results published in patent US8802713B2, “3-alkoxy-1-phenylpyrazole derivatives and pesticides” (Kumiai Chemical Industry Co., Ltd., priority 2007, dated 2014).
Some of these results come from one statement about several compounds together. For at least one compound, name, drawing or mass did not settle the structure.

Key:
two-spotted spider mites [1] = test: Miticidal test on two-spotted spider mites (seedling dip); assay type: in vivo, Tetranvchus urticae; conditions: 500 ppm active ingredient, soybean seedlings with imago mites dipped, 25° C., 13 days
Summary of the method: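 Soybean seedlings carrying adult mites were dipped in wettable-powder dilution at 500 ppm active ingredient, air-dried, and held at 25° C for 13 days. Live mites were counted and a protective value calculated.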

two-spotted spider mites [2] = test: Miticidal test on two-spotted spider mites (soil irrigation); assay type: in vivo, Tetranvchus urticae; conditions: 100 ppm active ingredient, soil (100 g) of soybean seedlings irrigated with 5 mL, 25° C., 13 days

| Compound | protective value (two-spotted spider mites [1]) | protective value (two-spotted spider mites [2]) |
| --- | --- | --- |
| Cc1cc(F)c(-n2nc(OC(F)F)cc2C)cc1[S+]([O-])CC(F)(F)F (centres unmarked) [1-1412] | ≥ 90 | ≥ 90 |
| CC(=O)Nc1cc(OC(F)(F)C(F)Cl)nn1-c1cc([S+]([O-])CC(F)(F)F)c(C)cc1F (centres unmarked) [1-1428] | ≥ 90 | ≥ 90 |
| Cc1cc(F)c(-n2ccc(OC(F)F)n2)cc1[S+]([O-])CC(F)(F)F (centres unmarked) [1-1356] | ≥ 90 | ≥ 90 |
| CC#CCOc1cc(NC(C)=O)n(-c2cc([S+]([O-])CC(F)(F)F)c(C)cc2F)n1 (centres unmarked) [1-218] | ≥ 90 | ≥ 90 |
